{"sequences": {"note": "Sequences of proteins named here, by UniProt entry; tags and fusion partners are left off.", "UniProt Q0JBA9, entry or part of it": "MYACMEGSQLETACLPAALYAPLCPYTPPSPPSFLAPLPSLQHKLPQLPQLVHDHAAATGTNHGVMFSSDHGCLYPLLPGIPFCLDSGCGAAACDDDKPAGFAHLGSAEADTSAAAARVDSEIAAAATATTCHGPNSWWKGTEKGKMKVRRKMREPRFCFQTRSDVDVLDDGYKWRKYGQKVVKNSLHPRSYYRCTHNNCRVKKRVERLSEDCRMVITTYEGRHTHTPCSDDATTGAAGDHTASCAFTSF"}, "source": "paper PMC7819943", "about": "“Rice protein-binding microarrays: a tool to detect cis-acting elements near promoter regions in rice”", "note": "The list shows a part of the results.", "data": [{"biological_target": "OsWRKY34 (Oryza sativa, UniProt Q0JBA9 1-250)", "assay": "protein-binding microarray (RPBM); PBS, 2% BSA, 51.3 ng/ul salmon testes DNA, 50 uM zinc acetate, 200 nM TF, 25 C, 1 h; high values mean tight binding", "settings": "protein: recombinant; tags: N-terminal polyhistidine and DsRed monomer fusion (pET32a); label: CyDye5-dUTP incorporated in the synthesized complementary strand; 3' TTTTT single-stranded linker to array surface; dsDNA, one strand shown", "in_short": "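Binding signal is reported as fluorescence intensity per feature (arbitrary units) from an Axon 4000B scanner. Incubation used 200 nM of each Ni–NTA-purified, N-terminally polyhistidine- and DsRed-fused transcription factor from E. coli BL21-CodonPlus on a double-stranded custom Agilent array for 1 h at 25 °C, with 50 µM zinc acetate in the buffer, followed by washing.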", "values": [{"sequence": "TGCTCATCACCATCTCCTTCACCTTCTCTTTCCCCACACTCGGAGTCACCTAGTGCAG", "binding signal": "12500 fluorescence intensity (a.u.)"}, {"sequence": "CTCACGCGCTCTCCCCTGCCCAACCACCACGCAAACAAACCGGAGTCACCTAGTGCAG", "binding signal": "9550 fluorescence intensity (a.u.)"}, {"sequence": "TTCTCGTCGGGCTCAAGGTCAATTACTGCTGCTCATTTTTCGGAGTCACCTAGTGCAG", "binding signal": "12300 fluorescence intensity (a.u.)"}, {"sequence": "ACTTTTCCATCACATCGTTTCAATTTCAACCAAACTTCCACGGAGTCACCTAGTGCAG", "binding signal": "9010 fluorescence intensity (a.u.)"}, {"sequence": "TTCGTTGGTTTCATAATGTGTCTATCGATGTTATAGTATGCGGAGTCACCTAGTGCAG", "binding signal": "8340 fluorescence intensity (a.u.)"}, {"sequence": "GGGGAGTTGCGGGAGGGAGGCATAGGGGACGCCGGCGAGGCGGAGTCACCTAGTGCAG", "binding signal": "9650 fluorescence intensity (a.u.)"}, {"sequence": "AGGAGGAGGAGGAGGCGGTGGCGGTGTTGCTGTCCGGTGACGGAGTCACCTAGTGCAG", "binding signal": "10200 fluorescence intensity (a.u.)"}, {"sequence": "CAATCAGCCGCCGAATCTGCATACAACCTCCGTTTTTGACCGGAGTCACCTAGTGCAG", "binding signal": "8260 fluorescence intensity (a.u.)"}, {"sequence": "TGGGTAGCCGGCGCTTATTTAGTCGCTTGCTCTCGTTCTCCGGAGTCACCTAGTGCAG", "binding signal": "9340 fluorescence intensity (a.u.)"}, {"sequence": "TCACATGGAATCATACCGATTTAGCTCTTGTATACATTTGCGGAGTCACCTAGTGCAG", "binding signal": "9340 fluorescence intensity (a.u.)"}, {"sequence": "GTTAGCAGGAGTTAGGTAAATCATTTTCAGACCATAATATCGGAGTCACCTAGTGCAG", "binding signal": "9090 fluorescence intensity (a.u.)"}, {"sequence": "AAGCATTGTTTCATCGTCGTTTCAACAGATTGATTGTTCTCGGAGTCACCTAGTGCAG", "binding signal": "11000 fluorescence intensity (a.u.)"}, {"sequence": "TGTTGTTCATGAACACTTTGTACTCTTCAGTCTCTTTTCGCGGAGTCACCTAGTGCAG", "binding signal": "10500 fluorescence intensity (a.u.)"}, {"sequence": "TTTTTCCCACCTACGTAAGCTGCCTAGCCCATTTGCAAGTCGGAGTCACCTAGTGCAG", "binding signal": "8440 fluorescence intensity (a.u.)"}, {"sequence": "ACCTATTATACACACATAACTTTTCAGCCACATCATCTTTCGGAGTCACCTAGTGCAG", "binding signal": "8790 fluorescence intensity (a.u.)"}, {"sequence": "TATGTGACGCTCCACGCCGACACACATTTGCATTTGGCTCCGGAGTCACCTAGTGCAG", "binding signal": "8070 fluorescence intensity (a.u.)"}, {"sequence": "ATGCACACACAATCCATATCCATATCCATAAATCTTATAGCGGAGTCACCTAGTGCAG", "binding signal": "8530 fluorescence intensity (a.u.)"}, {"sequence": "ATTTACTGGTTTTTCACCGGATTTCACGAAATTCCGAATTCGGAGTCACCTAGTGCAG", "binding signal": "9230 fluorescence intensity (a.u.)"}, {"sequence": "GTCCCACCTATTATACACACTGTATTCTAAAGTTCGTGTTCGGAGTCACCTAGTGCAG", "binding signal": "8740 fluorescence intensity (a.u.)"}, {"sequence": "TGACATCTCTAGACTTCCCACACGGTTTCCACACTATTTTCGGAGTCACCTAGTGCAG", "binding signal": "10100 fluorescence intensity (a.u.)"}, {"sequence": "GCCTCTCCATCTCTCGAGCCATCGCCGACGTCGTCAAGAACGGAGTCACCTAGTGCAG", "binding signal": "10300 fluorescence intensity (a.u.)"}, {"sequence": "TTTCTATGGGGAGGTGGGGAGGTAGGTGAGTGAAGTGCGGCGGAGTCACCTAGTGCAG", "binding signal": "10100 fluorescence intensity (a.u.)"}, {"sequence": "CGTGACCATGACGCATCCTCTGCTTTCAACCTTTGTTCTTCGGAGTCACCTAGTGCAG", "binding signal": "8570 fluorescence intensity (a.u.)"}, {"sequence": "CATGCCTAGTGTGAGTAGCATTTACGGTTTGGGGAATTGACGGAGTCACCTAGTGCAG", "binding signal": "8120 fluorescence intensity (a.u.)"}, {"sequence": "CATTCACTAGTGGTTTGCTTCCAGTTCCTATCCAATCTCTCGGAGTCACCTAGTGCAG", "binding signal": "9590 fluorescence intensity (a.u.)"}, {"sequence": "GATTCAATTTTTCCTTCCGCGCTCATCATAAATAGCAGCACGGAGTCACCTAGTGCAG", "binding signal": "8860 fluorescence intensity (a.u.)"}, {"sequence": "CGGTGTCGCTCACCGATCAGTGTTGGCCGTGCTGTCGACGCGGAGTCACCTAGTGCAG", "binding signal": "8750 fluorescence intensity (a.u.)"}, {"sequence": "GCATTCCATCTGTAGGTTATTTAGCACCCACCCAAGTTTTCGGAGTCACCTAGTGCAG", "binding signal": "10000 fluorescence intensity (a.u.)"}, {"sequence": "TCAAACGACCATTTTCCTGTATTTTGCAATCCTCTATTTTCGGAGTCACCTAGTGCAG", "binding signal": "13600 fluorescence intensity (a.u.)"}, {"sequence": "CTCCCGCACCCCTACCACCACCGTTCGTGTACGTGTCACCCGGAGTCACCTAGTGCAG", "binding signal": "9260 fluorescence intensity (a.u.)"}, {"sequence": "ATCATACTACCTGTCTTCTATCAGCCGCTCTTGTTAGGGTCGGAGTCACCTAGTGCAG", "binding signal": "10200 fluorescence intensity (a.u.)"}, {"sequence": "TGTCTGATCCCGTGTGCAGGGCCTGCGAGGCAATAACCTCCGGAGTCACCTAGTGCAG", "binding signal": "8160 fluorescence intensity (a.u.)"}, {"sequence": "GTTATATGTTACATGGAATAATTTTGTGTTGATGTTTTTACGGAGTCACCTAGTGCAG", "binding signal": "8430 fluorescence intensity (a.u.)"}, {"sequence": "TCGTCTCGCGGTTTACTAATGGATTCTGTAATTAGTTTTTCGGAGTCACCTAGTGCAG", "binding signal": "9240 fluorescence intensity (a.u.)"}, {"sequence": "CTTTTTTTCCTTGCATAAGTTTTCATGCAGTTTCTTATTACGGAGTCACCTAGTGCAG", "binding signal": "9820 fluorescence intensity (a.u.)"}, {"sequence": "CCATTACATCCTACTACTACTCTCCGCCGTCAAAGACGGCCGGAGTCACCTAGTGCAG", "binding signal": "8060 fluorescence intensity (a.u.)"}, {"sequence": "TGGCTCGTCACATTTCCTCTATATGACCCCAAATGTCACACGGAGTCACCTAGTGCAG", "binding signal": "8120 fluorescence intensity (a.u.)"}, {"sequence": "TGCCACCTGAGGTCAACAACCAAATCCATTTTCCTCCCATCGGAGTCACCTAGTGCAG", "binding signal": "8330 fluorescence intensity (a.u.)"}, {"sequence": "CTTAAAATTTTTGTGTTTTTTCTGCGGTCTAATCAAATGACGGAGTCACCTAGTGCAG", "binding signal": "9040 fluorescence intensity (a.u.)"}, {"sequence": "GATTGTGTTGTACATGCACACCGTATTCTGAACATTTTCTCGGAGTCACCTAGTGCAG", "binding signal": "8690 fluorescence intensity (a.u.)"}, {"sequence": "GCCGCCGCTGCTTGCTTCACTCGCCTCAGATCCGCGCCGCCGGAGTCACCTAGTGCAG", "binding signal": "8220 fluorescence intensity (a.u.)"}, {"sequence": "CACTTACCATGATAATTTGAACAGTTCACACGCGCCGAGACGGAGTCACCTAGTGCAG", "binding signal": "8190 fluorescence intensity (a.u.)"}, {"sequence": "CTCAGCTTACTTGATTGCCTAATGCGAACCTTGGATTTTTCGGAGTCACCTAGTGCAG", "binding signal": "10600 fluorescence intensity (a.u.)"}, {"sequence": "GTTGGGGTTCGTCGTCTTGGTCTTGGGTCTTCTTCGTCCCCGGAGTCACCTAGTGCAG", "binding signal": "11600 fluorescence intensity (a.u.)"}, {"sequence": "AAGGTGTGTTTGTAAGGAATATTTTCTTTTGGGGACCATCCGGAGTCACCTAGTGCAG", "binding signal": "8150 fluorescence intensity (a.u.)"}, {"sequence": "CGCCACGCCCTCATCTGCCCGGCCGCCTCACTGAAGAAAACGGAGTCACCTAGTGCAG", "binding signal": "8140 fluorescence intensity (a.u.)"}, {"sequence": "GGCTTCTGTTCCATGGGTGCCCCGTGCCCATGCCCGGCCACGGAGTCACCTAGTGCAG", "binding signal": "8530 fluorescence intensity (a.u.)"}, {"sequence": "TCTTAGCACACGTTTTGGTCCTGCGTTAAGCCCGCCAAATCGGAGTCACCTAGTGCAG", "binding signal": "9680 fluorescence intensity (a.u.)"}, {"sequence": "TACGACCACTATATAGGCTATCCATATTGCAATGTATTTTCGGAGTCACCTAGTGCAG", "binding signal": "8340 fluorescence intensity (a.u.)"}, {"sequence": "CAAGTACTCCGTACCCCATATTGGGGCATTTAACTATTTGCGGAGTCACCTAGTGCAG", "binding signal": "8290 fluorescence intensity (a.u.)"}, {"sequence": "CTCTAGTCAACGCGCCCACGTGGACCAGTTGTTCATCGAGCGGAGTCACCTAGTGCAG", "binding signal": "8090 fluorescence intensity (a.u.)"}, {"sequence": "TCCCTGAGCTTTTAGTTGTATTGTAGCCGTCCCCGTATAACGGAGTCACCTAGTGCAG", "binding signal": "8500 fluorescence intensity (a.u.)"}, {"sequence": "GACTCCGACCCATCCCGTCGTCCTCGTCGTCGTCCTCCTCCGGAGTCACCTAGTGCAG", "binding signal": "9540 fluorescence intensity (a.u.)"}, {"sequence": "AATCTCTAGTCGACGTAGAAGAATTCTTCTATACTTTCTGCGGAGTCACCTAGTGCAG", "binding signal": "9780 fluorescence intensity (a.u.)"}]}]}
